From paper PMC9260213
Positions count from the first letter of the chain named. These are yes or no findings as the source states them, for the method shown. Some entries that bind do so weakly or less than the wild type.

Experiments:
[1] = target: T1, murine Elp6 L118W (Mus musculus) (UniProt Q8BK75); assay: co-purification; mElp456 variants co-expressed in Hi-5 cells, captured from lysate on IgG agarose via Protein A on Elp6, TEV cleavage, gel filtration
T1 sequence: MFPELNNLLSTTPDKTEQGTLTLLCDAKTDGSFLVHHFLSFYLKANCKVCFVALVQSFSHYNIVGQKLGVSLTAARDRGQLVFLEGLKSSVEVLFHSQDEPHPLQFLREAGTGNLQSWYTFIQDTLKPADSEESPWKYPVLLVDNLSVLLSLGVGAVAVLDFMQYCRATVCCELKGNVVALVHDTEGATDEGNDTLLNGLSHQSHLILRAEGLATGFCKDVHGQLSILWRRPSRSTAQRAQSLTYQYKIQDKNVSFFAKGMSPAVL

[2] = target: T2, murine Elp6 L126Q (Mus musculus) (UniProt Q8BK75); assay: as above
T2 sequence: T1 sequence with W118L, L126Q

[3] = target: T3, murine Elp6 (subunit of mElp456) (Mus musculus) (UniProt Q8BK75); assay: SEC; three subunits co-expressed and purified as one complex (human, murine: Hi-5 cells, IgG agarose via Protein A on Elp6, TEV cleavage); gel filtration on Superose 6 Increase 10/300 GL by the legend (S200 Increase 10/300 GL by the methods), 20 mM HEPES pH 7.5, 100 mM NaCl, 2 mM MgCl2, 5 mM DTT; eluted at ~220 kDa; production of the yeast complex not told; both purified
T3 sequence: T1 sequence with W118L

[4] = target: T4, murine Elp5 (subunit of mElp456) (Mus musculus) (UniProt Q99L85); assay: cryo-EM structure; purified Elp456 subcomplexes, single particle analysis, C2 symmetry; homology models (template yeast Elp456) fitted into the maps; both purified
T4 sequence: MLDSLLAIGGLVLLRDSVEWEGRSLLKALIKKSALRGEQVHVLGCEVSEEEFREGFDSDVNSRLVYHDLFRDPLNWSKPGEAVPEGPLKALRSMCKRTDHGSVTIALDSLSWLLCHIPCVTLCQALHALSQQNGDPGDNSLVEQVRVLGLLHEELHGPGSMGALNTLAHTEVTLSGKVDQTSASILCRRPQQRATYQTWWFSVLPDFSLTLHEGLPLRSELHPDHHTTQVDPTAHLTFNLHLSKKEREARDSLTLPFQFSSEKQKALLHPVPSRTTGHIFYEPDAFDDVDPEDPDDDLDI

[5] = target: T3, murine Elp6 (subunit of mElp456) (Mus musculus); assay: as above

binding [1]: binds
binding [2]: binds
binding [3]: binds
binding [4]: binds
binding [5]: binds
B1: murine Elp4 (subunit of mElp456) (protein, UniProt Q9ER73 1-422)
chain: MAAADTCGAGTLSSRSVASEAGQGGTSSFQRKGKASGGPGGGPRLLSIAGTRPSVRNGQLLVSTGLPALDQLLGGGLAVGTLLLIEEDKYNIYSPLLFKYFMAEGIINGHTLLVASAKENPAKILQELPAPLLDDNSKKELEDVHSAKTPEPNVNMKIAWRYQLQPKMEVGPVSSSRFGHYYDLSKRIPWELLQSSKWHGFFLPEHISPDLKGESCFLSCGYMRLLEFIQKSVYAEGFDGANPQKKQKNILRIGIQNLGSPLWGDDICCKENCDNNHRLTKFLYILRGLLRSSLSACIITMPAHLVQNKSITTRVRNLSDTVVGLESFIGSERETNPLYKDYHGLIHIRKIPRLNNLTCDESDVKDLAFKLKRKLFTIERLHLPPDLSDTVGRSSKQDLAASTARLGAGCSSMAEGKKHLDF
